Experiment [1] addresses T1, Syngr3(fl)-HA (mouse) (UniProt Q8R191).
T1 sequence: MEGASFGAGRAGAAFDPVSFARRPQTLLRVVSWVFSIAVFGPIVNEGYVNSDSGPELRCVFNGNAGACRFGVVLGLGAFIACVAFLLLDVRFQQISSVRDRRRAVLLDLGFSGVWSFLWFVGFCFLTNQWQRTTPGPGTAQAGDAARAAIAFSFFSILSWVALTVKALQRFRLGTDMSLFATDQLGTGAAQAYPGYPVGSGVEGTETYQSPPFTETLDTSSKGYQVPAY
As to the kind of experiment: co-IP; HEK293T cells transiently co-transfected; lysates precipitated with anti-HA, blotted with anti-HA and anti-EGFP (Figure 6C).

Chains of the proteins cited; added tags and fusions are not shown.
UniProt P63044: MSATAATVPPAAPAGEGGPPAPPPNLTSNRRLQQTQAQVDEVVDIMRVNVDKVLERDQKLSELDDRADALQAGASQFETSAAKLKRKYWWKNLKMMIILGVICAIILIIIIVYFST
UniProt Q64332: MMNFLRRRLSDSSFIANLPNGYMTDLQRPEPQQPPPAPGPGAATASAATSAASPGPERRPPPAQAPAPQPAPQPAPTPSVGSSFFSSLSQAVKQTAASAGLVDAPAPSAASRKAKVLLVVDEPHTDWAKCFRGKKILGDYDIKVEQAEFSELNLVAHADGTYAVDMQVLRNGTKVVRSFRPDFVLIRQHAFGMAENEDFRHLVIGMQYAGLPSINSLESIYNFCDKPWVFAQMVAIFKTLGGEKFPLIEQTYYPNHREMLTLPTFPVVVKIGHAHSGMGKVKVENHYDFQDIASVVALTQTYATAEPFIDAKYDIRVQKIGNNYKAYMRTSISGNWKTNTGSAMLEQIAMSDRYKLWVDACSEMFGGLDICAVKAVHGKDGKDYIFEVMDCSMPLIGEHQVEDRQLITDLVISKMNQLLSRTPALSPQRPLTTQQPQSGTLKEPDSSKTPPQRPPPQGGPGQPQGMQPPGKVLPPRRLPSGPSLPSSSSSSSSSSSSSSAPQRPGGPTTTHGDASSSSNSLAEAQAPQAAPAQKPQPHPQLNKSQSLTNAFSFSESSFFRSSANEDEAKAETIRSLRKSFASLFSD

The target of experiment [2] is T1, Syngr3(fl)-HA (mouse). The experiment can be described thus: co-IP; HEK293T cells transfected with EGFP-Syn2a and HA-Syngr3, after 24 h treated for 12 h with P-2A (10 uM) or with FAD, ritonavir, cobicistat or crocin; lysates used for co-IP; precipitating antibody not stated.
Experiment [3] addresses T2, Syngr3 (deletion 133–148)-HA (mouse) (UniProt Q8R191).
T2 sequence: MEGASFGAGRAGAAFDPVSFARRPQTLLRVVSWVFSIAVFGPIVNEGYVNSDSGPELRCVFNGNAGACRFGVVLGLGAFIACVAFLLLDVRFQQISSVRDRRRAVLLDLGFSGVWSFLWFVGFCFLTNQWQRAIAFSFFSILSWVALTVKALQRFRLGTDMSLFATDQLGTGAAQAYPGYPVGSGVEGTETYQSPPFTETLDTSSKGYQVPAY
The experiment can be described thus: co-IP; HEK293T cells co-expressing Syngr3 mutants and the full length of Syn2a (Supplemental Figure 9, D–I); precipitating antibody not shown.

For experiment [4], the target named is T1, Syngr3(fl)-HA (mouse). The description is as above.
In experiment [5] the target is VAMP2 (mouse (endogenous in mouse brain)) (UniProt P63044). As to the kind of experiment: co-IP; endogenous proteins; presynaptic fraction of amygdala homogenates of mice (legend of Figure 5A: of mPFC homogenates); RIPA buffer, 2 ug antibody overnight, protein A/G agarose; naive, EXT-S and EXT-R mice.
For experiment [6], the target named is Synapsin 2a (mouse (endogenous in mouse brain)) (UniProt Q64332). The experiment can be described thus: co-IP; endogenous proteins; mPFC homogenates or lysates of mice (naive, EXT-S and EXT-R, WT and Syn2a-E; injected with P-2A, S-2A, ritonavir or PBS for the VAMP2 precipitations; ritonavir 5 mg/kg or PBS for anti-Syn2a); RIPA buffer, protein A/G agarose.
Experiment [7] has the same target. The experiment can be described thus: co-IP; endogenous proteins; presynaptic fraction of amygdala homogenates of mice (legend of Figure 5A: of mPFC homogenates); RIPA buffer, 2 ug antibody overnight, protein A/G agarose; naive, EXT-S and EXT-R mice.
Experiment [8] has the same target. The experiment can be described thus: co-IP; mPFC homogenates of WT mice injected intraperitoneally with P-2A or scrambled S-2A (10 mg/kg, one injection a day for 4 days); precipitated with anti-Syn2a.

These are yes or no findings as the source states them, for the method shown. Binding seen in cells or lysates may run through a third protein. Some results given as binding are weak or reduced against the parent protein; the word gives no strength. For some of these results: Tags and fused reporters may be left off the sequences shown.

As for EGFP-Syn2a (from UniProt Q64332 1-586), the binding result (in the experiment with Syngr3(fl)-HA (mouse) [1]; with Syngr3(fl)-HA (mouse) [2]; in experiment [3]; with Syngr3(fl)-HA (mouse) [4]) was “binds” in each case.

As to Synapsin 2a (from UniProt Q64332 1-586), the binding result in experiment [5] is “no binding”.

B1: Synaptogyrin-3 (protein, UniProt Q8R191 1-229)
chain: MEGASFGAGRAGAAFDPVSFARRPQTLLRVVSWVFSIAVFGPIVNEGYVNSDSGPELRCVFNGNAGACRFGVVLGLGAFIACVAFLLLDVRFQQISSVRDRRRAVLLDLGFSGVWSFLWFVGFCFLTNQWQRTTPGPGTAQAGDAARAAIAFSFFSILSWVALTVKALQRFRLGTDMSLFATDQLGTGAAQAYPGYPVGSGVEGTETYQSPPFTETLDTSSKGYQVPAY
As for B1, the binding result in experiment [6], in experiment [7] and in experiment [8] was “binds” each time.

B2: Ras-related protein Rab3a (protein, UniProt P63011 1-220)
chain: MASATDSRYGQKESSDQNFDYMFKILIIGNSSVGKTSFLFRYADDSFTPAFVSTVGIDFKVKTIYRNDKRIKLQIWDTAGQERYRTITTAYYRGAMGFILMYDITNEESFNAVQDWSTQIKTYSWDNAQVLLVGNKCDMEDERVVSSERGRQLADHLGFEFFEASAKDNINVKQTFERLVDVICEKMSESLDTADPAVTGAKQGPQLTDQQAPPHQDCAC
For the molecule B2, the binding entry in experiment [6] and in experiment [7] was “no binding” in each case.

The record behind these values is PMC10866652.
